Experimental data: patent publication US10821126B2, “Agent for treating retinopathy” (CARNA HEALTH SUPPORT LTD., priority 2016, dated 2020)

Test system: spontaneous type 2 diabetes model db/db mouse
Experiment: Effects on body weight, feed intake, urine volume and blood sugar in db/db mouse
Assay type: in vivo
Conditions: any of the dosage amounts 3, 1, 0.1, 0.01, 0.001 mg/kg/day, oral, 2 weeks
Protocol: The above-mentioned low dosage (0.01 mg/kg/day as canagliflozin) not showing an antihyperglycemic action was confirmed by the following method.
[…] Effects on body weight, feed intake, urine volume and blood sugar were confirmed.
FIGS. 6 and 7 show the results of fructosamine level which is an index for fasting blood sugar and average blood sugar levels when administering 3 mg/kg/day and 0.01 mg/kg/day of canagliflozin hydrate.

Cc1ccc([C@@H]2O[C@H](CO)[C@@H](O)[C@H](O)[C@H]2O)cc1Cc1ccc(-c2ccc(F)cc2)s1 [canagliflozin hydrate]
no significant change: body weight | feed intake | urine volume
